In patent publication US20010018195A1:
No constants are given. Whether binding was seen depends on the method and setting. Binding seen in cells or lysates may run through a third protein. Some entries that bind do so weakly or less than the wild type.

Protein sequences, listed by entry. Tags and fused reporters are not part of them.
UniProt P55211: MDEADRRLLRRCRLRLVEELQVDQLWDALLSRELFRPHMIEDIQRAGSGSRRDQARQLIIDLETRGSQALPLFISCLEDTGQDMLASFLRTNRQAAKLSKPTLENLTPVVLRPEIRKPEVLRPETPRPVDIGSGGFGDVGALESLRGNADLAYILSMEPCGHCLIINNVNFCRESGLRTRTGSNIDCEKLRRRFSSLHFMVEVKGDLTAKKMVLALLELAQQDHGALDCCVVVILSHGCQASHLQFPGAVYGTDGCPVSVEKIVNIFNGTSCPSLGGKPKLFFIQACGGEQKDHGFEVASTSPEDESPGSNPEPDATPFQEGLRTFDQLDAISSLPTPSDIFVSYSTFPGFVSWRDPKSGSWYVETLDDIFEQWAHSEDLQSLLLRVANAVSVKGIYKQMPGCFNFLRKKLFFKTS
UniProt Q13489: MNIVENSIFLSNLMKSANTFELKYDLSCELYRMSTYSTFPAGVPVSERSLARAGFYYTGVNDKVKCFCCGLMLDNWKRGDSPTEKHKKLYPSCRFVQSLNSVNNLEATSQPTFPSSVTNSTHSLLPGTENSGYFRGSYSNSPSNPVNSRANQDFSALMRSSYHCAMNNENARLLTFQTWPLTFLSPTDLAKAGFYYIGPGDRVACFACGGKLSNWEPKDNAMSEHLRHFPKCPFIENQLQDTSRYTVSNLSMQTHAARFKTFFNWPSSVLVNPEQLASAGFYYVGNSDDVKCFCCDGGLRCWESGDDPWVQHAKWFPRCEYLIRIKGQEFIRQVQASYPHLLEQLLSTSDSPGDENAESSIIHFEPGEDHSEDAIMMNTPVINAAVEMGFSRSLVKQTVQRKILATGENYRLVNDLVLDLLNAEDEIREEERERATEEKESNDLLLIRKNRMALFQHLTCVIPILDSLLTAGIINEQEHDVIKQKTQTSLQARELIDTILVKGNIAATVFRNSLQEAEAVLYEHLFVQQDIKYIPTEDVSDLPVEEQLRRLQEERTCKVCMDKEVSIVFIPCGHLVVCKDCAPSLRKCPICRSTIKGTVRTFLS

Biological target: in vitro translated 35S-labeled pro-caspase-9 (UniProt P55211)
Test: GST pull-down of in vitro translated 35S-pro-caspase-9, SDS-PAGE and autoradiography

GST-c-IAP-2 (from UniProt Q13489 1-604)
binding: binds
